The target in assay [1] is HA-tagged USP11, HA at the amino-terminus (human) (UniProt P51784). The experiment in a line: affinity purification with mass spectrometry.
Assay [2] concerns the target HA-tagged USP11, HA at the carboxy-terminus (human) (UniProt P51784). The experiment in a line: affinity purification with mass spectrometry.

Sequences of proteins named here, by UniProt entry; tags and fusion partners are left off.
UniProt P51784: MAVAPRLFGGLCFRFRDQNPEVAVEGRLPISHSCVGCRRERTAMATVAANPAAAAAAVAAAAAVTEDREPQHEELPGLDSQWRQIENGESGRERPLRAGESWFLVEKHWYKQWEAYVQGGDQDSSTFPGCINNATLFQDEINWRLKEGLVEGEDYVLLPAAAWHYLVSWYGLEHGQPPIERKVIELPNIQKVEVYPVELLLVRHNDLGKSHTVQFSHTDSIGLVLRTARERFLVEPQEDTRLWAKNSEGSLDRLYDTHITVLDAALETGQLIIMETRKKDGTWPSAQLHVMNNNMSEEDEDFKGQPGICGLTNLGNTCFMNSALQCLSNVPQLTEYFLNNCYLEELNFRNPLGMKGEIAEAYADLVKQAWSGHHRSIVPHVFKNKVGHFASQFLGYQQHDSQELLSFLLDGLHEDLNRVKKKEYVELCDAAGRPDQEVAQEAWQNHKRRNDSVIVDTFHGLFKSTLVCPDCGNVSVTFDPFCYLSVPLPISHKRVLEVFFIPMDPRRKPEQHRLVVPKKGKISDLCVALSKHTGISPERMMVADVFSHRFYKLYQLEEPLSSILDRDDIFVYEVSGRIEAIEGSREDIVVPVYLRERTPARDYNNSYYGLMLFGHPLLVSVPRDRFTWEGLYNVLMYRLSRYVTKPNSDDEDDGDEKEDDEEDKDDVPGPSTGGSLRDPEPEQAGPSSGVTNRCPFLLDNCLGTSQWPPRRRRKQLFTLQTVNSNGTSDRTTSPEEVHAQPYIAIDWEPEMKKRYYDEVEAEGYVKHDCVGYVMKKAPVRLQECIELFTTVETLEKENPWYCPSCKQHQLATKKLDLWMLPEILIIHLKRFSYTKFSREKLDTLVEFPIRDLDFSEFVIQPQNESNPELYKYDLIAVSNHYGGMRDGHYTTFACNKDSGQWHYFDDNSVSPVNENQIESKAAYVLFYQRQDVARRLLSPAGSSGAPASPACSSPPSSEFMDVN
UniProt Q93009: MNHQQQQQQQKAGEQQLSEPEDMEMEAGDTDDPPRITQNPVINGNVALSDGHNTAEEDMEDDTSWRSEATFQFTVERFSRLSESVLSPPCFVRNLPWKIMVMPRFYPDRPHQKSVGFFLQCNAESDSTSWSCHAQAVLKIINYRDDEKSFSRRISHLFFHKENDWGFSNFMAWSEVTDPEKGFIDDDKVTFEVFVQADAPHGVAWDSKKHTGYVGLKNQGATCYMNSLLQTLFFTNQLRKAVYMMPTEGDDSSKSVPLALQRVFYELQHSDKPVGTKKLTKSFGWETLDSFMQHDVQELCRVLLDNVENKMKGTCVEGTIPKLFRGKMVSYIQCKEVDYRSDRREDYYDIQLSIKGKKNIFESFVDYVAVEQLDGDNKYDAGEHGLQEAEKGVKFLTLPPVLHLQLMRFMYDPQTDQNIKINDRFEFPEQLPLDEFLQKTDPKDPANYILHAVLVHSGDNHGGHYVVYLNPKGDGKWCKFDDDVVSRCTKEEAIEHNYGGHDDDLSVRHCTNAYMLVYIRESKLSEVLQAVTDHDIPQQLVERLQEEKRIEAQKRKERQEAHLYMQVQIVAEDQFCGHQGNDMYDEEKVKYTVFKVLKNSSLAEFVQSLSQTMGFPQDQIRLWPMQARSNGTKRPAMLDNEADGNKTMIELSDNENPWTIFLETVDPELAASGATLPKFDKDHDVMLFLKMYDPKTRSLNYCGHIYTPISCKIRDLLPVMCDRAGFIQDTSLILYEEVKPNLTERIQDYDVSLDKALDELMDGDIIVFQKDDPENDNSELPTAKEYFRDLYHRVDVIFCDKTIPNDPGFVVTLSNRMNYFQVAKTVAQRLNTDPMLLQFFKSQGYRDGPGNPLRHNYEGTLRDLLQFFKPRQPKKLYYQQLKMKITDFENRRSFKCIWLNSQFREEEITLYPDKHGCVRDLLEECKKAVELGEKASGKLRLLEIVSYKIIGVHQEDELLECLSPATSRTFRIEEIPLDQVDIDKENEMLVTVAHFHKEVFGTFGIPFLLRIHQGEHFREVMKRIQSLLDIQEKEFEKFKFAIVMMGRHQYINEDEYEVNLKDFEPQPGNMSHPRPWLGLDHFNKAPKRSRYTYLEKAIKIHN

These are yes or no findings as the source states them, for the method shown. Binding seen in cells or lysates may run through a third protein. Here binding means that the protein was enriched with, or labelled near, the bait; the list need not be complete.

As to “USP7 (endogenous) (from UniProt Q93009 1-1102) (enzyme)”, the binding result in assay [1] and in assay [2] was “binds” in each case.

(Values after publication doi:10.1101/2024.07.29.605622.)
